Measurements reported in PubChem BioAssay AID493246 (Drosophila RNAi Screening Center, 2011).

- Assay: 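Genes fly cells need to grow and stay alive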 (primary screen)
- Cell system: Drosophila Kc and S2R+ cells
- Reagent: long dsRNA against Drosophila genes
- Measured: 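Raw, unnormalised count of remaining cells in each well; per-plate z-scores of cell number underlie the calls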
- Scale: Kc cell number and S2R+ cell number: higher = more cells remaining
- Rule for the call: 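Active when the per-plate z-score of cell number is 3 or more in the direction of fewer cells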
The deposit covers about 21,000 reagents; this is an unselected part of those with a known target gene and a result. Of all reagents, 429 (2%) are marked active. 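Values are raw and not normalised between plates; calls rest on per-plate z-scores that were not deposited.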 Unmarked entries are inactive. Names joined by + are all predicted targets of the reagent. No sequences are given here. The record does not give: the amount of reagent, the time to read-out.

Silencing of Hers + amn [DRSC20306] gave: Kc cell number, rep 1 = 1.50e6; Kc cell number, rep 2 = 1.54e6; S2R+ cell number, rep 1 = 1.06e6; S2R+ cell number, rep 2 = 1.17e6. For pcx [DRSC18186], the values are Kc cell number, rep 1 = 1.45e6; Kc cell number, rep 2 = 1.50e6; S2R+ cell number, rep 1 = 1.09e6; S2R+ cell number, rep 2 = 1.18e6. Knock-down of pcx [DRSC18187] gave: Kc cell number, rep 1 = 1.52e6; Kc cell number, rep 2 = 1.55e6; S2R+ cell number, rep 1 = 1.04e6; S2R+ cell number, rep 2 = 1.22e6. With knock-down of pcx [DRSC18188], the screen gave Kc cell number, rep 1 = 1.47e6; Kc cell number, rep 2 = 1.51e6; S2R+ cell number, rep 1 = 1.03e6; S2R+ cell number, rep 2 = 1.13e6. pcx [DRSC18189] showed Kc cell number, rep 1 = 1.53e6; Kc cell number, rep 2 = 1.47e6; S2R+ cell number, rep 1 = 1.00e6; S2R+ cell number, rep 2 = 1.21e6. With knock-down of pcx [DRSC18190], the record shows Kc cell number, rep 1 = 1.57e6; Kc cell number, rep 2 = 1.60e6; S2R+ cell number, rep 1 = 9.78e5; S2R+ cell number, rep 2 = 1.15e6.

pcx [DRSC18816] showed Kc cell number, rep 1 = 5.15e5; S2R+ cell number, rep 1 = 8.57e5. After knock-down of CG7889 [DRSC20066], the record shows Kc cell number, rep 1 = 1.65e6; Kc cell number, rep 2 = 1.65e6; S2R+ cell number, rep 1 = 1.21e6; S2R+ cell number, rep 2 = 1.34e6. Depletion of CG1074 [DRSC12143] came out at: Kc cell number, rep 1 = 1.66e6; Kc cell number, rep 2 = 1.63e6; S2R+ cell number, rep 1 = 1.48e6; S2R+ cell number, rep 2 = 1.54e6. For CG15207 (retired record) [DRSC19653], the entry reads Kc cell number, rep 1 = 1.44e6; Kc cell number, rep 2 = 1.53e6; S2R+ cell number, rep 1 = 1.07e6; S2R+ cell number, rep 2 = 1.14e6. After knock-down of ko [DRSC11893], the record shows Kc cell number, rep 1 = 1.39e6; Kc cell number, rep 2 = 1.55e6; S2R+ cell number, rep 1 = 1.30e6; S2R+ cell number, rep 2 = 1.36e6. Spc105R [DRSC11663] gave Kc cell number, rep 1 = 1.30e6 (active); Kc cell number, rep 2 = 1.34e6; S2R+ cell number, rep 1 = 7.53e5; S2R+ cell number, rep 2 = 8.50e5.

Depletion of CG8289 [DRSC20101] gave: Kc cell number, rep 1 = 1.45e6; Kc cell number, rep 2 = 1.47e6; S2R+ cell number, rep 1 = 1.00e6; S2R+ cell number, rep 2 = 1.14e6. Depletion of CG34282 [DRSC16298] came out at: Kc cell number, rep 1 = 1.14e6; Kc cell number, rep 2 = 1.23e6; S2R+ cell number, rep 1 = 1.09e6; S2R+ cell number, rep 2 = 1.15e6. Against CG2120 [DRSC18207], the entry reads Kc cell number, rep 1 = 1.46e6; Kc cell number, rep 2 = 1.45e6; S2R+ cell number, rep 1 = 9.85e5; S2R+ cell number, rep 2 = 1.09e6. For CG11041 [DRSC06025], the values are Kc cell number, rep 1 = 1.57e6; Kc cell number, rep 2 = 1.57e6; S2R+ cell number, rep 1 = 1.21e6; S2R+ cell number, rep 2 = 1.36e6. After knock-down of Rbcn-3A [DRSC18314] the results were Kc cell number, rep 1 = 1.53e6; Kc cell number, rep 2 = 1.50e6; S2R+ cell number, rep 1 = 1.10e6; S2R+ cell number, rep 2 = 1.21e6. Against CG33494 [DRSC13715] the deposit lists Kc cell number, rep 1 = 1.18e6; Kc cell number, rep 2 = 1.50e6; S2R+ cell number, rep 1 = 1.06e6; S2R+ cell number, rep 2 = 1.08e6.

Knock-down of CG9624 [DRSC16523] came out at: Kc cell number, rep 1 = 1.20e6; Kc cell number, rep 2 = 1.22e6; S2R+ cell number, rep 1 = 9.71e5; S2R+ cell number, rep 2 = 1.16e6. Depletion of CG12535 [DRSC17838] resulted in: Kc cell number, rep 1 = 1.60e6; Kc cell number, rep 2 = 1.52e6; S2R+ cell number, rep 1 = 1.11e6; S2R+ cell number, rep 2 = 1.27e6. Silencing of CG13043 [DRSC09924] gave: Kc cell number, rep 1 = 1.51e6; Kc cell number, rep 2 = 1.51e6; S2R+ cell number, rep 1 = 1.24e6; S2R+ cell number, rep 2 = 1.32e6.

Records above marked active (1):
Spc105R [DRSC11663] → Kc cell number, rep 1: 1.30e6 (active); Kc cell number, rep 2: 1.34e6; S2R+ cell number, rep 1: 7.53e5; S2R+ cell number, rep 2: 8.50e5
